{"source": "patent US10226413B2", "about": "“Solution solubilization composition of insoluble material and method for solubilizing insoluble material using same” (Damy Chemical Co., Ltd., priority 2013, dated 2019)", "assay": "Turbidity and transmittance evaluation of solubilization products", "conditions": "solubilization products of Example 6 from compositions of Example 5; FIGS. 9 and 10", "experimental": "The turbidity of each lotion was measured using a spectrophotometer at 620 nm. A high turbidity of a liquid indicates cloudiness of the liquid and a low turbidity of a liquid indicates high transparency of the liquid. The turbidity (optical density) of the lotion was measured in the range of 0.01-1.0.\nThe amount of light passing through each solution was measured. The transmittance (T, %) of the solution for light was calculated as follows. First, the measured absorbance was substituted into -log t=A (absorbance, O.D). Since t is always not greater than 1, the transmittance (T) was calculated and expressed in percentage by T (%)=t×100. The transmittance is between 1 and 100%. The higher the transmittance, the higher the transparency. The transmittance of purified water was defined as 100%.", "note": "At least one structure is not confirmed: it was looked up by name or label, or the drawing left a doubt. Some entries repeat one wording, which the source may state once for all of them.", "data": [{"smiles": "COc1ccc([C@@H]2CC(=O)c3c(O)cc(O[C@@H]4O[C@H](CO[C@@H]5O[C@@H](C)[C@H](O)[C@@H](O)[C@H]5O)[C@@H](O)[C@H](O)[C@H]4O)cc3O2)cc1O", "note": "[hesperidin]", "values": [{"measurement": "solubilization in water by the composition (turbidity and transmittance)", "value": "can solubilize"}]}]}
